Article PMC5897841, “Development of a multipurpose scaffold for the display of peptide loops” (Protein Engineering, Design and Selection, 2017)
No constants are given. Whether binding was seen depends on the method and setting.

Molecular target: Aurora A_(D274N) kinase domain (human) (UniProt O14965)
Assay: AUC; sedimentation velocity, absorbance at 280 nm, 50 000 rpm, 20°C, 20 mM HEPES pH 7.5, 500 mM NaCl; single proteins and mixtures (5 μM each CK2α and RAD-CK2β; 10 μM each Aurora A D274N and RAD-TPX2); both purified

B1: Aurora A_(D274N) kinase domain (domain or fragment, UniProt O14965 122-403)
chain: ESKKRQWALEDFEIGRPLGKGKFGNVYLAREKQSKFILALKVLFKAQLEKAGVEHQLRREVEIQSHLRHPNILRLYGYFHDATRVYLILEYAPLGTVYRELQKLSKFDEQRTATYITELANALSYCHSKRVIHRDIKPENLLLGSAGELKIANFGWSVHAPSSRRTTLCGTLDYLPPEMIEGRMHDEKVDLWSLGVLCYEFLVGKPPFEANTYQETYKRISRVEFTFPDFVTEGARDLISRLLKHNPSQRPMLREVLEHPWITANSSKPSNCQNKESASKQS
- binding: no binding (tested: 10 μM)
